{
  "source": "paper PMC8416862",
  "about": "(Clinical Pharmacokinetics, 2021)",
  "assay": "Trial 2: plasma pharmacokinetics of single-dose furosemide and rosuvastatin",
  "assay_type": "in vivo, healthy male and female subjects",
  "details": "single dose co-administered with oral semaglutide versus alone",
  "data": [
    {"smiles": "NS(=O)(=O)c1cc(C(=O)O)c(NCc2ccco2)cc1Cl", "note": "[Furosemide, furosemide]", "values": [
      {"measurement": "increase in total exposure", "result": 28, "unit": "%"}
    ]}
  ]
}
